Reference: the supplement of paper PMC12889115
Some of the results follow. Values are raw readings; no control value is given beside them.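 Primary screen: polymyxin B was added at a level permeabilizing Salmonella outer membranes while sparing inner membranes. DMSO wells, both with and without polymyxin B, established maximum growth. Plate-to-plate variation meant each plate was ranked on its own, and the lowest-OD600 compounds were selected as hits.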

Test system: Salmonella enterica serovar Typhimurium SL1344
Experiment: bacterial growth OD600 after 18 h with compound and polymyxin B; higher = more bacterial growth (less inhibition)
Details: 50 µM, Mueller-Hinton broth

Structure (SMILES)	bacterial growth OD600 (polymyxin B 1 µg/mL)	bacterial growth OD600 (polymyxin B 0.75 µg/mL)
C#CCN(Cc1nc(-c2ccc(OC)c(OC)c2)oc1C)C1CCCCC1	0.936	
Cc1cc(C(=O)N2CCCC(N3CCN(c4cccc(C(F)(F)F)c4)CC3)C2)nn1C (centres undefined)	0.958	
Cc1ccc(C(=O)N2CC[C@@H](N3CCN(CCc4ccccc4)CC3)[C@H](O)C2)cc1	1.07	
CC(C)C(=O)N1CCC2(CCCN(Cc3ccc(F)c(F)c3)C2=O)C1 (centres undefined)	0.994	
CC(=O)c1ccc(-c2cc(F)cc3c2OC(CNC(=O)C2(c4ccccc4)CC2)C3)s1 (centres undefined)		0.497
COCCNC(=O)c1ccc(OC)cc1OC1CCN(Cc2ccc(Cl)s2)CC1	1.09	
CN(CCc1ccccc1)C1CCCN(Cc2ncc[nH]2)C1 (centres undefined)	1.17	
CN(c1ncccc1CNC(=O)C1Cc2ccccc2O1)C1CCCCC1 (centres undefined)	0.242	
Cc1nc(N(C)C2CCCCC2)ncc1C(C)NC(=O)CCn1cncn1 (centres undefined)		0.91

Already shown: two of the compounds above.
Structure (SMILES)	bacterial growth OD600 (polymyxin B 1 µg/mL)	bacterial growth OD600 (polymyxin B 0.75 µg/mL)
Cc1ccc(C(=O)N2CC[C@@H](N3CCN(CCc4ccccc4)CC3)[C@H](O)C2)cc1	1.07	
CC(C)C(=O)N1CCC2(CCCN(Cc3ccc(F)c(F)c3)C2=O)C1 (centres undefined)	0.994	
